# Measurements: patent US20120238762A1, “AZOLE DERIVATIVES AND METHODS FOR PRODUCING THE SAME, INTERMEDIATE COMPOUNDS FOR THE DERIVATIVES AND METHODS FOR PRODUCING THE SAME, AND AGRO-HORTICULTURAL AGENTS AND INDUSTRIAL MATERIAL PROTECTING AGENTS CONTAINING THE DERIVATIVES” (KUREHA CORPORATION, priority 2009, published 2012)
# Some results were stated once for a whole list of compounds, not compound by compound.
# Tested on: Fusarium graminearum
# Type: in vivo
# Conditions: wettable formulation 500 mg/L sprayed at 1,000 L/ha, four to seven days after inoculation
row,Compound,"Protective value, wheat fusarium head blight"
1,"OC(Cn1cncn1)(C1CC1(Cl)Cl)C1(Cl)CC1 (single isomer, unassigned) [I-2a, 1-(1-chlorocyclopropyl)-1-(2,2-dichlorocyclopropyl)-2-(1H-1,2,4-triazol-1-yl)ethanol]",≥ 80%
2,"OC(CC1CC1(Br)Br)(Cn1cncn1)C1(Cl)CC1 (single isomer, unassigned) [I-210a, 2-(1-chlorocyclopropyl)-1-(2,2-dibromocyclopropyl)-3-(1H-1,2,4-triazol-1-yl)propan-2-ol]",≥ 80%
3,"OC(CCC1CC1(Cl)Cl)(Cn1cncn1)C1(Cl)CC1 (single isomer, unassigned) [I-607a, 2-(1-chlorocyclopropyl)-4-(2,2-dichlorocyclopropyl)-1-(1H-1,2,4-triazol-1-yl)butan-2-ol]",≥ 80%
4,"OC(CCC1CC1(Cl)Cl)(Cn1cncn1)C1(Cl)CC1 (single isomer, unassigned) [I-607b, 2-(1-chlorocyclopropyl)-4-(2,2-dichlorocyclopropyl)-1-(1H-1,2,4-triazol-1-yl)butan-2-ol]",≥ 80%
